Results are given in words; binding and its absence hold for the method and conditions named. In cells and extracts the contact can be indirect. Binding calls can cover weak binding; strength is not graded here. Tags and fused reporters may be left off the sequences shown.
Assays:
Assay in all cases: co-IP; COS cells co-transfected with Flag-tagged OR constructs and MKS3 or HA-tagged MKS1; immunoprecipitation with a Flag antibody, blot for MKS3 or for HA (MKS1)
[1] = biological target: MOR256-21, N-terminal Flag tag
[2] = biological target: MOR256-24, N-terminal Flag tag
[3] = biological target: MOR EG, N-terminal Flag tag
[4] = biological target: MOR256-25, N-terminal Flag tag

Measured: binding

B1: Meckel-Gruber syndrome 1 (MKS1), HA-tagged (protein, UniProt Q9NXB0 1-559)
chain: MAETVWSTDTGEAVYRSRDPVRNLRLRVHLQRITSSNFLHYQPAAELGKDLIDLATFRPQPTASGHRPEEDEEEEIVIGWQEKLFSQFEVDLYQNETACQSPLDYQYRQEILKLENSGGKKNRRIFTYTDSDRYTNLEEHCQRMTTAASEVPSFLVERMANVRRRRQDRRGMEGGILKSRIVTWEPSEEFVRNNHVINTPLQTMHIMADLGPYKKLGYKKYEHVLCTLKVDSNGVITVKPDFTGLKGPYRIETEGEKQELWKYTIDNVSPHAQPEEEERERRVFKDLYGRHKEYLSSLVGTDFEMTVPGALRLFVNGEVVSAQGYEYDNLYVHFFVELPTAHWSSPAFQQLSGVTQTCTTKSLAMDKVAHFSYPFTFEAFFLHEDESSDALPEWPVLYCEVLSLDFWQRYRVEGYGAVVLPATPGSHTLTVSTWRPVELGTVAELRRFFIGGSLELEDLSYVRIPGSFKGERLSRFGLRTETTGTVTFRLHCLQQSRAFMESSSLQKRMRSVLDRLEGFSQQSSIHNVLEAFRRARRRMQEARESLPQDLVSPSGTLVS
binds: all assays above
